The supplement of paper PMC10849652
The other results are listed elsewhere or left out.

Sequences of proteins named here, by UniProt entry; tags and fusion partners are left off. A change or cut given only in a name is not applied to a line headed by its entry.
UniProt Q9Y2K7: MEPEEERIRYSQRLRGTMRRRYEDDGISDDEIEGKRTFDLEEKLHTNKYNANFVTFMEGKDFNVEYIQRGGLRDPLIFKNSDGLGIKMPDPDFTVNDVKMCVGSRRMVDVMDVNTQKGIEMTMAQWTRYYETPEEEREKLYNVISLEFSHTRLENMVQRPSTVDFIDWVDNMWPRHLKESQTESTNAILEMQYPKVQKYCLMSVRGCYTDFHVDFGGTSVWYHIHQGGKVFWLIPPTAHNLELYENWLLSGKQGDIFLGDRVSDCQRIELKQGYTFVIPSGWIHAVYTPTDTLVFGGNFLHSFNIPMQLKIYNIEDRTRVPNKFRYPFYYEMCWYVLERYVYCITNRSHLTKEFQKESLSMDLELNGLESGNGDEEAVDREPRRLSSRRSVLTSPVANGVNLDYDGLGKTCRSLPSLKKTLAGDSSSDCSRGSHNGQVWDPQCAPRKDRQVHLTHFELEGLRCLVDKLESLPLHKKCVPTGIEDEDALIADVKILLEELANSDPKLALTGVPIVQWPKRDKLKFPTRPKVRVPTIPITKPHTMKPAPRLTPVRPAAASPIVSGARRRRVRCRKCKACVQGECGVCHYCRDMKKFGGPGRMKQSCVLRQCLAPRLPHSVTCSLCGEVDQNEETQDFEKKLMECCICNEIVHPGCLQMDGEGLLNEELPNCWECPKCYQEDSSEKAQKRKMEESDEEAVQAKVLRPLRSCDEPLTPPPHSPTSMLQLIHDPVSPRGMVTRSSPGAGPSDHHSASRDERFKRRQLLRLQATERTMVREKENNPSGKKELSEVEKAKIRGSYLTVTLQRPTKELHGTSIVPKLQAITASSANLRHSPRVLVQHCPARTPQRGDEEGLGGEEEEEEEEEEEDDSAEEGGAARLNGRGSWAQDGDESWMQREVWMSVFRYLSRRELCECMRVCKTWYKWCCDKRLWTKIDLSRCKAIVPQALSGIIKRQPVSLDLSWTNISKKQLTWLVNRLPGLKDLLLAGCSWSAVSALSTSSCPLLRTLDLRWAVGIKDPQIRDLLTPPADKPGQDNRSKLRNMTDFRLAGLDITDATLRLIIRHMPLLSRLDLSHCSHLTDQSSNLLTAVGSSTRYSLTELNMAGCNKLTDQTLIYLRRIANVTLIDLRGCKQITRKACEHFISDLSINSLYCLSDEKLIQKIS
UniProt Q9UI26: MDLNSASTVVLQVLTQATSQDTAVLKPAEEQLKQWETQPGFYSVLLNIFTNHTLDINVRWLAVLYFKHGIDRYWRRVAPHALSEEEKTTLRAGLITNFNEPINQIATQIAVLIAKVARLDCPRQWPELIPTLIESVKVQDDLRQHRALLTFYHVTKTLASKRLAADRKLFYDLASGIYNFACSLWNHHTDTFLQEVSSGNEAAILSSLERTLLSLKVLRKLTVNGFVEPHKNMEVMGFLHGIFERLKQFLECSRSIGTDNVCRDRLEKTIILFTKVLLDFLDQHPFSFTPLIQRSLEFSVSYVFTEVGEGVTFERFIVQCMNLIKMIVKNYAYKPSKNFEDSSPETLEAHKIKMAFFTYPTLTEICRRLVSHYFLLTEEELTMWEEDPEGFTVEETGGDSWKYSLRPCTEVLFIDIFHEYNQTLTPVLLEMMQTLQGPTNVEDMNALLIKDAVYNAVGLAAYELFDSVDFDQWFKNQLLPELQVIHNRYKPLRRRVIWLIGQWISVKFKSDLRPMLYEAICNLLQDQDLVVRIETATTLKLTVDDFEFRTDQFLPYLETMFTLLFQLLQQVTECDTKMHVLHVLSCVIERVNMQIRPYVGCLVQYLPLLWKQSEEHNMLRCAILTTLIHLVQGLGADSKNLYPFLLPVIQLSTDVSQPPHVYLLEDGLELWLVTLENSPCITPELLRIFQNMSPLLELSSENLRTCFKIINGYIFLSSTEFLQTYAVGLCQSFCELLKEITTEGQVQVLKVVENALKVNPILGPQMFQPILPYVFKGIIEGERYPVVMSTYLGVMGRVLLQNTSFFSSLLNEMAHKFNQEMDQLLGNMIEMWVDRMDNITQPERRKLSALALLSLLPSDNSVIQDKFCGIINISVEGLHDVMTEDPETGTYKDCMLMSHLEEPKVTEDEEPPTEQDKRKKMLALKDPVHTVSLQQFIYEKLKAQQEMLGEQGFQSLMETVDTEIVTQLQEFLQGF
UniProt O00180: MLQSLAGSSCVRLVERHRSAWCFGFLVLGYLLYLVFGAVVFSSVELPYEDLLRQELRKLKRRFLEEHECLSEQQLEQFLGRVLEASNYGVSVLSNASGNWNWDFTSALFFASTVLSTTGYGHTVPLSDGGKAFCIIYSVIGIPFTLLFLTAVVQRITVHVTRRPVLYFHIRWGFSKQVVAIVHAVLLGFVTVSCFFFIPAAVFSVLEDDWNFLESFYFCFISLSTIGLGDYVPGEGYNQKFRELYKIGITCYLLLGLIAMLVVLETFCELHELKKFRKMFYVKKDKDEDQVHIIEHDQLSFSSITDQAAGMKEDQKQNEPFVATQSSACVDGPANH
UniProt Q9Y287, whole entry, looked up: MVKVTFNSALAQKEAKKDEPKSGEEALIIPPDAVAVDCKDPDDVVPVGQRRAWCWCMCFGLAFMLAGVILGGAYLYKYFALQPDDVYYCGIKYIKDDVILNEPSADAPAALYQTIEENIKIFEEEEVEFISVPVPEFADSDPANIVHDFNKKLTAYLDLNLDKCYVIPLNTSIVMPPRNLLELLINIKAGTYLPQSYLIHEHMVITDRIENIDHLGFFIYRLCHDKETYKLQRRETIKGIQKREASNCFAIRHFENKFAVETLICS
UniProt Q92833: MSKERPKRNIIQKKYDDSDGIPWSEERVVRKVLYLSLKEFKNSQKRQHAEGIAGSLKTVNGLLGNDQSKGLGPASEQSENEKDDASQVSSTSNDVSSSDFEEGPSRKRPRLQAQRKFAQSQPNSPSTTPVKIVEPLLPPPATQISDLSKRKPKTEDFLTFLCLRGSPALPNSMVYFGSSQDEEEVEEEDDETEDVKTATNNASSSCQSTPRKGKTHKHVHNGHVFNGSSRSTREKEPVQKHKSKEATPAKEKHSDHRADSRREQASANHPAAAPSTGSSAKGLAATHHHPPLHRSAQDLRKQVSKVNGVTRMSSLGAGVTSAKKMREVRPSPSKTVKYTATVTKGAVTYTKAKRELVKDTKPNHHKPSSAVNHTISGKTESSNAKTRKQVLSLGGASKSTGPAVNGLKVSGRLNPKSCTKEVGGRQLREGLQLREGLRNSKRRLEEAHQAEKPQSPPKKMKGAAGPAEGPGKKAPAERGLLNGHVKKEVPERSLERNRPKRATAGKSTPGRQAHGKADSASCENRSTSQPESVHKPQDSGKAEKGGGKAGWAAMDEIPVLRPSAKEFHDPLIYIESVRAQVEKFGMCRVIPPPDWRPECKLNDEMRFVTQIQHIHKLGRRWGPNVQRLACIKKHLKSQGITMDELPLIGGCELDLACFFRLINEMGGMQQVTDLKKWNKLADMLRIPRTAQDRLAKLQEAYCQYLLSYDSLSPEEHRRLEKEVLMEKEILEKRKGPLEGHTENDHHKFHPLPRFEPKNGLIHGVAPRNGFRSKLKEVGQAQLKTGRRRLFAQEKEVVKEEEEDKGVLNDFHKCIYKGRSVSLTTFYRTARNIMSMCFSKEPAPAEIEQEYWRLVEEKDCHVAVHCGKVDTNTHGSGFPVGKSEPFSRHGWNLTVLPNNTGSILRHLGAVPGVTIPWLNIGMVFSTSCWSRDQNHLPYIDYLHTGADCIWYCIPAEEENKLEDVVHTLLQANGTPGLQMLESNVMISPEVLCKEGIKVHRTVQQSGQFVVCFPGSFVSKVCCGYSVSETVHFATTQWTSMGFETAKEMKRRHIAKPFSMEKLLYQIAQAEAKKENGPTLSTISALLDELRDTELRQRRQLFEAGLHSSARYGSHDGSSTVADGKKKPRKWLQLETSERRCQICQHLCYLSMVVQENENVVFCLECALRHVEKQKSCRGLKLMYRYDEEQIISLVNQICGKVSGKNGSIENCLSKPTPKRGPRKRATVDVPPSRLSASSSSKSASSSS
UniProt P48200: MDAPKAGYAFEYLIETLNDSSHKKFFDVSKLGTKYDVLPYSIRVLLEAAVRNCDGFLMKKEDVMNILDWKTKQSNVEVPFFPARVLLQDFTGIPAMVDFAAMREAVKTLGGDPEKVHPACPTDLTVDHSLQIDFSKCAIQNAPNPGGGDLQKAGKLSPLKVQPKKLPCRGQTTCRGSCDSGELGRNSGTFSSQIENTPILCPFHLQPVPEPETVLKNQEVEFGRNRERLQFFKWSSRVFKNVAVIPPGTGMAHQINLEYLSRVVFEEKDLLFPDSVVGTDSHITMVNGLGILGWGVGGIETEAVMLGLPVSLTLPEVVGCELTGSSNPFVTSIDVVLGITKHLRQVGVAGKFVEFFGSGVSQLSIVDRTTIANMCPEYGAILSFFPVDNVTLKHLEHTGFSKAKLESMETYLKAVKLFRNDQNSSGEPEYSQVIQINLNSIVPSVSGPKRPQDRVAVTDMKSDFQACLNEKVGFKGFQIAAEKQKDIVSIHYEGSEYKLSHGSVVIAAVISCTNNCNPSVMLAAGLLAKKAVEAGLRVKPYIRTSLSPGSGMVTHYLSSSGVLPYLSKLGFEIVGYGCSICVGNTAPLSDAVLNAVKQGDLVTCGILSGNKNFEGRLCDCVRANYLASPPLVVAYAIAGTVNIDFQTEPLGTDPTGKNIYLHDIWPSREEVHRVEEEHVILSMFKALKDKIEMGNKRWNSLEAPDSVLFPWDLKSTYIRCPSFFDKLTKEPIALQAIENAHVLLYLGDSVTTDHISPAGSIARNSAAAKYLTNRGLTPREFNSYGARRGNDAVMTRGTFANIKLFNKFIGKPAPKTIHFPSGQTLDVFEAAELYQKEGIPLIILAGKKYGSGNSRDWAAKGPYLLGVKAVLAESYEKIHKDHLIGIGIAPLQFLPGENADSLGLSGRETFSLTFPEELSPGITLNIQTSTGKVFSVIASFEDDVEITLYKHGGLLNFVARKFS
UniProt Q86V97: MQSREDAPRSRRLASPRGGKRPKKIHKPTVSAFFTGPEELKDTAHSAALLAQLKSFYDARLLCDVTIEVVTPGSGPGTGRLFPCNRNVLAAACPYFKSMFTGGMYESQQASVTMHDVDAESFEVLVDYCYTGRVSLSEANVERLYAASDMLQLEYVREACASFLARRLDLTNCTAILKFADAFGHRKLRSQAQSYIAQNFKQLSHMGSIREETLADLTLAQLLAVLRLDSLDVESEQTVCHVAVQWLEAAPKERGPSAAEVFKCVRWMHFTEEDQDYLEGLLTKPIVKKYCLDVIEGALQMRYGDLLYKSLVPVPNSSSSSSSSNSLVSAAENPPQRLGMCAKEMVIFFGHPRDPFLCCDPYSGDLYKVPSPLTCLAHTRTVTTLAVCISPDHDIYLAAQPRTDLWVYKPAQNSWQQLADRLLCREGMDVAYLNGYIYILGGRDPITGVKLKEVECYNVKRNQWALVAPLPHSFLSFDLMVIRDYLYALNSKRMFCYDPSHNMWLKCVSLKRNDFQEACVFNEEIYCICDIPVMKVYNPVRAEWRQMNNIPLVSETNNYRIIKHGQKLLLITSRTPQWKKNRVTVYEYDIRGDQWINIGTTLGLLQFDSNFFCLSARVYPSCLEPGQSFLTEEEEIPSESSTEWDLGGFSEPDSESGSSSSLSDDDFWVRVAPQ
UniProt O75564: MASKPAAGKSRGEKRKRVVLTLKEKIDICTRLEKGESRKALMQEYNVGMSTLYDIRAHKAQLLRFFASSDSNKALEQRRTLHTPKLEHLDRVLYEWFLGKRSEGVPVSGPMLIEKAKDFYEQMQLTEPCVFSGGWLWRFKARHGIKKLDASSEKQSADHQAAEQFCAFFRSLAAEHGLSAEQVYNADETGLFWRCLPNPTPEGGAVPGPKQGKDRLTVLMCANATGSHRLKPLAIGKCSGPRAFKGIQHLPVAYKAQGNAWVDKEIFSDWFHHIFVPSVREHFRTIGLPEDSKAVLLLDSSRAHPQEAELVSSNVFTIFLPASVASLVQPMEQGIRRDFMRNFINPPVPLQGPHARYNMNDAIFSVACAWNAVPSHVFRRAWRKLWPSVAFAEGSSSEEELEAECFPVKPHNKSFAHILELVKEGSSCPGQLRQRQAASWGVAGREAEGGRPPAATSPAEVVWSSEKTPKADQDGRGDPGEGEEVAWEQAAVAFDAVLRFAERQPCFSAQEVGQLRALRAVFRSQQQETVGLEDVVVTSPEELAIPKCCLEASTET
UniProt Q8WZ19: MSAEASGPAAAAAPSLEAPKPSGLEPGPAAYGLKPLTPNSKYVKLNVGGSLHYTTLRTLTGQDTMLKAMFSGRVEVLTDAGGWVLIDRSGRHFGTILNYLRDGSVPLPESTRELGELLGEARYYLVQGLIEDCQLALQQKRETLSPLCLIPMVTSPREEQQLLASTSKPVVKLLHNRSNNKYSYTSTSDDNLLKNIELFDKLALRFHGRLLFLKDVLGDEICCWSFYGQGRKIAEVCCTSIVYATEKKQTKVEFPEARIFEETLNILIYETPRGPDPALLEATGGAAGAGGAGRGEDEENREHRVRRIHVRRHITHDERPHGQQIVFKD

What was measured:
Test in all cases: log2 fold change, soluble protein after heating vs DMSO (PISA); higher = thermal stabilisation; K562 lysate, 10 uM; active = over 0.2 and 3.5 SD of the protein, either way, in both replicates (recomputed)
[1] = compound: Cc1cn(-c2cc(NC(=O)c3ccc(C)c(Nc4nccc(-c5cccnc5)n4)c3)cc(C(F)(F)F)c2)cn1 [nilotinib]
Procedure, shortened: (§1)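 Thermal stability, expressed as log-two fold change relative to solvent controls, is given from duplicates. Crude K562 extract in PBS pH 7.4 with 1 mM MgCl2, at 1 mg/mL protein, was treated with 10 μM compound for 30 min and heated in aliquots for 3 min across 48°C-58°C. After pooling, adjustment to 0.5% NP-40 at 4°C and centrifugation at 21,000xg for 90 min, supernatant protein was measured by TMTpro 16plex LC-MS/MS with channel sums equalised.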

[2] = compound: Cc1nc(Nc2n[nH]c3c2CN(C(=O)N[C@H](CN(C)C)c2ccccc2)C3(C)C)c2sccc2n1
Procedure, shortened: as §1

[3] = compound: Cc1nc(Nc2ncc(C(=O)Nc3c(C)cccc3Cl)s2)cc(N2CCN(CCO)CC2)n1 [dasatinib]
Procedure, shortened: as §1

[4] = compound: Cc1ncc(-c2ccnc(Nc3ccc(S(C)(=O)=O)cc3)n2)n1C(C)C
Procedure, shortened: as §1

[5] = compound: Cn1cc(-c2ccc3c(c2)CCN3C(=O)Cc2cccc(C(F)(F)F)c2)c2c(N)ncnc21
Procedure, shortened: as §1

[6] = compound: Cn1cc(CNCC2CCN(c3ncc(C(=O)NO)cn3)CC2)c2ccccc21 [quisinostat]
Procedure, shortened: as §1

[7] = compound: Cn1cncc1[C@@](N)(c1ccc(Cl)cc1)c1ccc2c(c1)c(-c1cccc(Cl)c1)cc(=O)n2C [tipifarnib]
Procedure, shortened: as §1

[8] = compound: NC(=O)Nc1cc(-c2cccc(F)c2)sc1C(=O)N[C@H]1CCCNC1
Procedure, shortened: as §1

[9] = compound: NC(=O)c1cnc(N[C@@H]2CCCC[C@@H]2N)nc1Nc1cccc(-n2nccn2)c1
Procedure, shortened: as §1

[10] = compound: NC1(c2ccc(-c3nc4ccn5c(=O)[nH]nc5c4cc3-c3ccccc3)cc2)CCC1
Procedure, shortened: as §1

Row | Target | log2 fold change [1] | log2 fold change [2] | log2 fold change [3] | log2 fold change [4] | log2 fold change [5] | log2 fold change [6] | log2 fold change [7] | log2 fold change [8] | log2 fold change [9] | log2 fold change [10]
1 | KCTD3 (UniProt Q9Y597) | inactive: 0.031 | inactive: 0.014 | inactive: 0.063 | inactive: -0.019 | inactive: 0.029 | inactive: -0.081 | inactive: -0.034 | inactive: -0.02 | inactive: -0.021 | inactive: 0.033
2 | JTB (UniProt O76095) | inactive: -0.121 | inactive: 0.004 | inactive: -0.052 | inactive: 0.062 | inactive: 0.046 | inactive: -0.114 | inactive: -0.117 | inactive: 0.01 | inactive: 0.062 | inactive: -0.027
3 | KCT2 (UniProt Q8NC54) | inactive: -0.034 | inactive: 0.008 | inactive: 0.025 | inactive: -0.025 | inactive: 0.043 | inactive: 0.031 | inactive: 0.001 | inactive: 0.024 | inactive: 0.051 | inactive: 0.005
4 | KATNB1 (UniProt Q9BVA0) | inactive: 0.119 | inactive: -0.052 | inactive: 0.044 | inactive: 0.057 | inactive: 0.018 | inactive: -0.102 | inactive: -0.055 | inactive: 0.027 | inactive: 0.014 | inactive: 0.008
5 | JMJD6 isoform 3 (UniProt Q6NYC1) | inactive: -0.018 | inactive: 0.004 | inactive: 0.01 | inactive: -0.023 | inactive: -0.053 | inactive: -0.015 | inactive: -0.034 | inactive: 0.071 | inactive: -0.022 | inactive: -0.022
6 | KDM1A (UniProt O60341) | inactive: -0.009 | inactive: 0.007 | inactive: -0.023 | inactive: 0.005 | inactive: 0.012 | inactive: -0.045 | inactive: -0.052 | inactive: 0.029 | inactive: 0.007 | inactive: -0.026
7 | IRS2 (UniProt Q9Y4H2) | inactive: -0.05 | inactive: -0.044 | inactive: -0.018 | inactive: -0.071 | inactive: -0.074 | inactive: -0.15 | inactive: -0.071 | inactive: 0.142 | inactive: 0.062 | inactive: 0.112
8 | KDM3B (UniProt Q7LBC6) | inactive: -0.021 | inactive: -0.012 | inactive: -0.041 | inactive: 0.008 | inactive: -0.019 | inactive: -0.021 | inactive: -0.041 | inactive: 0.026 | inactive: 0.007 | inactive: 0.013
9 | KCTD20 (UniProt Q7Z5Y7) | inactive: 0.054 | inactive: -0.021 | inactive: -0.096 | inactive: 0.074 | inactive: 0.039 | inactive: -0.138 | inactive: -0.028 | inactive: 0.109 | inactive: 0.089 | inactive: -0.007
10 | ITGB5 (UniProt P18084) | inactive: -0.052 | inactive: 0.04 | inactive: 0.001 | inactive: 0.065 | inactive: -0.065 | inactive: 0.085 | inactive: 0.083 | inactive: 0.004 | inactive: -0.038 | inactive: 0.013
11 | IQGAP2 (UniProt Q13576) | inactive: -0.006 | inactive: -0.009 | inactive: -0.049 | inactive: 0.013 | inactive: 0.029 | inactive: -0.063 | inactive: 0.019 | inactive: 0.065 | inactive: 0.018 | inactive: -0.029
12 | KDM2A (UniProt Q9Y2K7) | inactive: -0.046 | inactive: 0.039 | inactive: -0.057 | inactive: 0.034 | inactive: 0.084 |  | inactive: 0.028 |  |  | inactive: 0.09
13 | IPO11 isoform 2 (UniProt Q9UI26) | inactive: 0.005 | inactive: 0.02 | inactive: -0.016 | inactive: -0.004 | inactive: 0.011 | inactive: -0.04 | inactive: -0.024 | inactive: 0.015 | inactive: 0.011 | inactive: -0.029
14 | KDF1 (UniProt Q8NAX2) | inactive: -0.017 | inactive: 0.041 |  | inactive: 0.022 |  | inactive: 0.008 | inactive: -0.037 | inactive: 0.012 | inactive: 0.06 | inactive: -0.118
15 | KCNK1 (UniProt O00180) | inactive: -0.257 | inactive: 0.194 | inactive: 0.05 | inactive: -0.156 | inactive: -0.052 |  | inactive: 0.028 |  | inactive: 0.03 | inactive: 0.05
16 | IRF2BP2 (UniProt Q7Z5L9) | inactive: 0 | inactive: 0.032 | inactive: 0.018 | inactive: 0.014 | inactive: -0.03 | inactive: -0.026 | inactive: -0.003 | inactive: 0.028 | inactive: -0.004 | inactive: 0.02
17 | KANSL1 (UniProt Q7Z3B3) | inactive: -0.012 | inactive: 0.241 | inactive: 0.081 | inactive: -0.032 | inactive: 0.147 |  | inactive: -0.023 |  | inactive: -0.038 | inactive: 0.307

Fetched one by one from the entries so far (3):
Row | Target | log2 fold change [1] | log2 fold change [2] | log2 fold change [3] | log2 fold change [4] | log2 fold change [5] | log2 fold change [6] | log2 fold change [7] | log2 fold change [8] | log2 fold change [9] | log2 fold change [10]
5 | JMJD6 isoform 3 (UniProt Q6NYC1) | inactive: -0.018 | inactive: 0.004 | inactive: 0.01 | inactive: -0.023 | inactive: -0.053 | inactive: -0.015 | inactive: -0.034 | inactive: 0.071 | inactive: -0.022 | inactive: -0.022
8 | KDM3B (UniProt Q7LBC6) | inactive: -0.021 | inactive: -0.012 | inactive: -0.041 | inactive: 0.008 | inactive: -0.019 | inactive: -0.021 | inactive: -0.041 | inactive: 0.026 | inactive: 0.007 | inactive: 0.013
13 | IPO11 isoform 2 (UniProt Q9UI26) | inactive: 0.005 | inactive: 0.02 | inactive: -0.016 | inactive: -0.004 | inactive: 0.011 | inactive: -0.04 | inactive: -0.024 | inactive: 0.015 | inactive: 0.011 | inactive: -0.029

(further entries)

Row | Target | log2 fold change [1] | log2 fold change [2] | log2 fold change [3] | log2 fold change [4] | log2 fold change [5] | log2 fold change [6] | log2 fold change [7] | log2 fold change [8] | log2 fold change [9] | log2 fold change [10]
18 | ITGB1 (UniProt P05556) | inactive: 0.029 | inactive: -0.006 | inactive: 0.058 | inactive: -0.006 | inactive: -0.04 | inactive: -0.006 | inactive: 0.008 | inactive: -0.002 | inactive: -0.009 | inactive: -0.005
19 | ITM2B (UniProt Q9Y287) | inactive: 0.012 | inactive: -0.028 | inactive: 0.023 | inactive: -0.002 | inactive: -0.031 | inactive: 0.015 | inactive: -0.012 | inactive: 0.018 |  | inactive: -0.024
20 | JPT1 (UniProt Q9UK76) | inactive: -0.019 | inactive: 0.002 | inactive: -0.013 | inactive: 0.002 | inactive: -0.039 | inactive: 0.007 | inactive: 0.045 | inactive: -0.017 | inactive: -0.044 | inactive: 0.005
21 | KDM3A (UniProt Q9Y4C1) | inactive: -0.021 | inactive: 0.038 | inactive: -0.067 | inactive: -0.001 | inactive: 0.004 | inactive: -0.082 | inactive: 0.023 | inactive: -0.011 |  | inactive: 0.035
22 | JARID2 (UniProt Q92833) | inactive: 0.086 | inactive: -0.216 |  | inactive: -0.025 |  |  | inactive: 0.041 |  |  | 
23 | JMJD7 (UniProt P0C870) | inactive: -0.294 | inactive: -0.116 | inactive: -0.321 | inactive: 0.098 | inactive: 0.011 |  | inactive: -0.072 |  | inactive: 0.028 | inactive: -0.07
24 | IRAK4 (UniProt Q9NWZ3) | inactive: -0.115 | inactive: 0.065 | inactive: 0.051 | inactive: -0.012 | inactive: 0.023 | inactive: -0.066 | inactive: -0.044 | active: 0.413 | inactive: 0.028 | inactive: 0
25 | KCTD21 (UniProt Q4G0X4) | inactive: 0.052 | inactive: -0.091 |  | inactive: -0.012 |  | inactive: -0.023 | inactive: 0.206 | inactive: -0.009 |  | inactive: 0.038
26 | IREB2 (UniProt P48200) | inactive: -0.022 | inactive: -0.004 | inactive: 0.008 | inactive: 0.008 | inactive: 0.015 | inactive: 0.019 | inactive: 0.027 | inactive: 0.03 | inactive: 0.05 | inactive: 0.016
27 | KBTBD6 (UniProt Q86V97) | inactive: -0.255 | inactive: -0.015 |  | inactive: 0.112 |  | inactive: 0.156 | inactive: 0.036 | inactive: -0.098 |  | 
28 | ITGA2B (UniProt P08514) | inactive: 0.138 | inactive: -0.055 |  | inactive: -0.107 |  | inactive: -0.144 | inactive: -0.105 | inactive: 0.007 | inactive: -0.103 | inactive: 0.055
29 | IPO5 (UniProt H0Y3V4) | inactive: -0.078 | inactive: -0.157 | inactive: -0.114 | inactive: -0.011 | inactive: 0.006 |  | inactive: -0.077 |  | inactive: -0.034 | inactive: -0.198
30 | JRK isoform 2 (UniProt O75564) | inactive: -0.005 | inactive: -0.033 |  | inactive: -0.058 |  |  | inactive: 0.099 |  |  | 
31 | ITFG1 (UniProt Q8TB96) | inactive: -0.006 | inactive: -0.066 | inactive: -0.013 | inactive: 0.036 | inactive: 0.01 | inactive: 0.039 | inactive: -0.015 | inactive: 0.041 | inactive: 0.057 | inactive: 0.002
32 | JAK2 (UniProt O60674) | inactive: 0.196 | inactive: 0.071 | inactive: -0.14 | inactive: -0.064 | inactive: -0.011 |  | inactive: 0.144 |  |  | inactive: 0.095
33 | KCTD13 (UniProt Q8WZ19) | inactive: -0.042 | inactive: 0.093 | inactive: 0.103 | inactive: -0.07 | inactive: 0.028 | inactive: -0.087 | inactive: 0.01 | inactive: 0 |  | inactive: 0.056
34 | IPO5 isoform 3 (UniProt O00410) | inactive: 0.017 | inactive: -0.008 | inactive: -0.013 | inactive: -0.002 | inactive: 0.001 | inactive: 0.022 | inactive: 0.012 | inactive: -0.009 | inactive: 0.004 | inactive: 0.016
